Reference: the supplement of paper PMC8846439
Counter-ions that a name gives are not always drawn. The list shows a part of the results. Many values rest on one well or one pass, so single values are uncertain.

tested on: Trypanosoma brucei brucei bloodstream form L262P (kDNA-independent); assay: viability Z-score (nuclei count per well, median-polish normalised, relative to plate distribution); higher = more viable parasites (negative = growth inhibition); conditions: 4 days; compound concentration: 10 µM (some Prestwick/PKE rows may be 1 µM / not distinguished)

Compound | viability Z-score
O=C(N[C@]([H])(CC=1C=CC=CC=1)C(=O)NCC/C2=C/C=CC=C2)[C@@]3([H])CC[C@@](C)([H])CC3 | -2.62
CN1CCc2cccc3c2[C@H]1Cc1ccc(O)c(O)c1-3.CN1CCc2cccc3c2[C@H]1Cc1ccc(O)c(O)c1-3 [R(-) Apomorphine hydrochloride hemihydrate] | -1.86
O=C(NCCSC1CCCCC1)c1ccco1 | -3.4
N=c1[nH]c(-c2ccc3c(c2)OCCO3)cs1 | -6.1
O=C(C=1C(=NOC=1C)C2=C([Cl])C=C/C=C2/[Cl])N3CCN(CC3)C=4C=CC(=CC=4[N+](=O)[O-])C([F])([F])[F] | -1.61
O=C1OC(CN2CCOCC2)CN1/N=C/c1ccc([N+](=O)[O-])o1 (stereo not given) [Furaltadone hydrochloride] | -3.14
O=C(NC(=O)N/C1=C/C=C(/[Cl])C=C1)C=2C=NN3C=2N=C(/C=C3/C([F])([F])[F])C([F])([F])[F] | -2.17
O=C(NC=2[S]C(C/C1=C/C(C)=CC=C1)=CN=2)C/C3=C/C=CC=C3 | -3.33
CSCC[C@@H](NS(=O)(=O)c1cccs1)C(=O)N1CCCCC1 | -2.87
O[C@@]([H])(CO/C1=C/C=CC=C1)CNCCNC=2N=CC(=CN=2)CCC | -3.99
O=C(c1cccs1)N1CCN(C(=O)c2cccc3ccccc23)CC1 | -1.64
O=C1C=C(C(=NN1CC(=O)NC=2/C=C(/[Cl])C(=CC=2)OC)C(C)(C)[H])C=3O/N=C(/C)C=3 | -3.54
CCOC(=O)c1[nH]c(C)c(C(=O)N2CCN(CC)CC2)c1C | -3.52
O=C(N/C1=N/C=C/C=C1/C)C=2C=CC([Cl])=CC=2[Cl] | -6.03
CC(C)NCc1cccc([N+](=O)[O-])c1 | -3.57
N#CC(NC(=O)OCC)=C(NC/C1=C/C=CC=C1)NC/C2=C/C=CC=C2 | -9.52
O=C(C/C1=C/C=C[S]1)N(C=3C=C2OCOC2=CC=3C(C)=O)[C@]([H])(C4=CC=C[S]4)C(=O)N[C@@]5([H])CCCCC5 | -3.21
Cc1ccc(C(=O)c2cc(/C=C/C(=O)NO)n(C)c2)cc1 | -3.85
O=C1OC(O)=CN(N1N/C2=N/C=CC=C2)C3=NC=CC=C3 | -2.65
O=C(C[S]/C1=N/N=C(N1C=2C=CC([F])=CC=2)C=3C=CC(O)=CC=3)N4CCCCC4 | -2.98

Compound | viability Z-score
N#Cc1ccc(C(c2ccc(C#N)cc2)n2cncn2)cc1 [Letrozole] | -3.59
O=C2N(/C1=C/C(=C(/C)C=C1)[N+](=O)[O-])C(=O)C[C@@]2([H])[S]CC(=O)N/C3=C/C(=CC(=C3)C([F])([F])[F])C([F])([F])[F] | -4.06
N#C/C2=C(\N)OC=1N=C/N=C(/O)C=1[C@@]2([H])C3=C[S]C=C3 | -5.54
CN(C)N1C(=O)c2ccccc2[C@]1(N)c1ccccc1 | -2.52
N#C/C1=C(/[S]C(C)=C1CC)NC(=O)[C@]2([H])ON=C(C2)C=3/C=C(/[Cl])C(=CC=3OC)OC | -5.7
O=C4N(NC(=O)[C@@]2(O)C=1C=CC=CC=1C=3C=CC=CC2=3)C(=O)[C@@]6([H])[C@]4([H])[C@]7([H])C=5C=CC=CC=5[C@@]6([H])C=8C=CC=CC7=8 | -5.77
O=[N+]([O-])C=C1CCCN1c1cc(O)c(N2CCC/C2=C\[N+](=O)[O-])cc1O | -3.43
COC(=O)[C@@H]1C(c2ccccc2)=NN(C)C1(C)C | -8.19
O=C(C/C1=C/NC=2C=CC=CC1=2)OCC(=O)C3=CC=C(C=C3)C=4C=CC=CC=4 | -2.8
O=C1OCCN1N=Cc1ccc([N+](=O)[O-])o1 [Furazolidone] | -3.6
O=C(C/C1=N/C(=NO1)C=2C=CC(=CC=2)OC)N(C)C=3C=CC=CC=3CC | -3.43
O=[S](=O)(NC=1N=C(N=C(C=1)OC)OC)C3=C/C=C(/NCC=2C=CC=CC=2O)C=C3 | -3.39
O=[S](=O)(C)N(NC(=O)C(O)(CCCCCC)CCCCCC)C1=C/C=C(/C)C=C1 | -2.84
COCC(=O)Nc1c(I)c(C(=O)NCC(O)CO)c(I)c(C(=O)N(C)CC(O)CO)c1I (stereo not given) [Iopromide] | -4.88
CC1=C(C#N)[C@@H](c2cccc([N+](=O)[O-])c2)C2=C(N1)c1ccccc1S2(=O)=O | -1.64
CCOC(=O)c1cc(CC)sc1/N=C/C1C(=O)CCCC1=O | -2.12
O=C(N[C@]([H])(NC=1C=CC=CC=1[F])C(=O)C2=CC=CC=C2)C3=C/C=C(/[Cl])C=C3 | -1.21
Nc1ncnc2c1c(I)cn2[C@H]1O[C@@H](CO)[C@H](O)[C@@H]1O [5-Iodotubericidin] | -5.98
CC(C)NCC(O)COc1cccc2ccccc12 [(R)-Propranolol hydrochloride] | -2.52
CCN[C@H]1C[C@H](C)S(=O)(=O)c2sc(S(N)(=O)=O)cc21 [Dorzolamide hydrochloride] | -2.64

An excerpt of these results, as a markdown table.

| Compound | viability Z-score |
| --- | --- |
| N#C/C2=C(\N)OC=1N=C/N=C(/O)C=1[C@@]2([H])C3=C[S]C=C3 | -5.54 |
| CN(C)N1C(=O)c2ccccc2[C@]1(N)c1ccccc1 | -2.52 |
| N#C/C1=C(/[S]C(C)=C1CC)NC(=O)[C@]2([H])ON=C(C2)C=3/C=C(/[Cl])C(=CC=3OC)OC | -5.7 |
